We go through 6 substances from PMC9698582.

Chains of the proteins cited; added tags and fusions are not shown. Residues count along the entry.
UniProt O14980: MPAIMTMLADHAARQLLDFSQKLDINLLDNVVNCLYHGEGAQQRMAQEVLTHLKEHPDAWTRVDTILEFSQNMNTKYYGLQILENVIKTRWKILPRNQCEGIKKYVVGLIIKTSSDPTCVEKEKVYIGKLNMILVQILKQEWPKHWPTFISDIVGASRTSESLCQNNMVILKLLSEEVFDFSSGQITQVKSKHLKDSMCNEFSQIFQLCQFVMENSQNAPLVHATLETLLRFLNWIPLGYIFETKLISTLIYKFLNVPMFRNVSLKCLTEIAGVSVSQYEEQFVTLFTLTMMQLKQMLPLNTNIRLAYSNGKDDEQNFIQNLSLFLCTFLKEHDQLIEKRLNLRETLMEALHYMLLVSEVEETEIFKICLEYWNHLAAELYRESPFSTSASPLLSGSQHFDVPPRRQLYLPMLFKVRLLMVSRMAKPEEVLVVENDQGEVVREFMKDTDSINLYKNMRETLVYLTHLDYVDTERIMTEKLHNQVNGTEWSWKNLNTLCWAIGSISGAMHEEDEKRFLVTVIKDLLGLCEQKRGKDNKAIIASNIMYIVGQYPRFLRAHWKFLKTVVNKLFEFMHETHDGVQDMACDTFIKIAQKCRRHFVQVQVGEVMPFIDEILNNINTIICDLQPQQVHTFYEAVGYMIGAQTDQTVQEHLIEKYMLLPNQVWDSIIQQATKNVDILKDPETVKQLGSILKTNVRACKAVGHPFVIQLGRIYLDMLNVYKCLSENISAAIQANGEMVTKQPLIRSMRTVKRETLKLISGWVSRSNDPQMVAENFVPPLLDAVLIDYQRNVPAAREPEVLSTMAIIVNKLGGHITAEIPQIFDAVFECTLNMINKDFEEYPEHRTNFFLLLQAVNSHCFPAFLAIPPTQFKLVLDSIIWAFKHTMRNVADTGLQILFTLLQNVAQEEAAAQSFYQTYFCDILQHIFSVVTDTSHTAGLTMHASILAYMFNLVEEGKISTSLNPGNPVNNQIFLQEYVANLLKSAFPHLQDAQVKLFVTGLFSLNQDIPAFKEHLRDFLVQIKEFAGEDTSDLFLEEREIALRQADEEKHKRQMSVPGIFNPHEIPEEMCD
UniProt Q9HAV4: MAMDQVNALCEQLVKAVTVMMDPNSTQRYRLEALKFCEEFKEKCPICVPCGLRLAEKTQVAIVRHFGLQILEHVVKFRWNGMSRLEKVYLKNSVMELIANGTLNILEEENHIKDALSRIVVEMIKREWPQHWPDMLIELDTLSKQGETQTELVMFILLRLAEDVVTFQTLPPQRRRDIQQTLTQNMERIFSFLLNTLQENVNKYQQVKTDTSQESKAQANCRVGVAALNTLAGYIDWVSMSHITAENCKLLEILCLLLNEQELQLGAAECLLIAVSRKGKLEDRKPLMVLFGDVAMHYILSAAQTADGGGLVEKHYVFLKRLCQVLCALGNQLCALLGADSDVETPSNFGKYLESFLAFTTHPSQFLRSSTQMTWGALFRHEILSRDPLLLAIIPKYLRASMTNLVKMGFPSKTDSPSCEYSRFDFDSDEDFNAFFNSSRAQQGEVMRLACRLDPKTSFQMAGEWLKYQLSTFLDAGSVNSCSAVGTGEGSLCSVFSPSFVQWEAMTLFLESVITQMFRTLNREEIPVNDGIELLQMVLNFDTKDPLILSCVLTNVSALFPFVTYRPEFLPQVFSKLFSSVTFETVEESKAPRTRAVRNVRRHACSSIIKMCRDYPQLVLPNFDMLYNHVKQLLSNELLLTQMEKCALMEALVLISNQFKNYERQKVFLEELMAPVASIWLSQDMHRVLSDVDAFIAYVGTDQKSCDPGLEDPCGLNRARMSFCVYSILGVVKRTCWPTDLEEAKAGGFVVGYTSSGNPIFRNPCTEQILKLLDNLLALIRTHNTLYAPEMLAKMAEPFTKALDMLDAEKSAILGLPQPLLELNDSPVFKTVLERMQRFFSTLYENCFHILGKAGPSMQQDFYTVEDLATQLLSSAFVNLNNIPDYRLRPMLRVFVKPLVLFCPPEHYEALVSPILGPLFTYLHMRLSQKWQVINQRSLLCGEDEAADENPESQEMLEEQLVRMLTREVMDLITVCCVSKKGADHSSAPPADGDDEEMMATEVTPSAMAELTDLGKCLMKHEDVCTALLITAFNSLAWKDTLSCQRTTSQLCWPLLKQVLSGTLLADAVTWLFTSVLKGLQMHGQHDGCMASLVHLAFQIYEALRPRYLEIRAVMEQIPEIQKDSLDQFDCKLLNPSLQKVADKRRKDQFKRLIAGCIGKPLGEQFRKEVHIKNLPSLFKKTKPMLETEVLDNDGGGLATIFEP
UniProt Q14974: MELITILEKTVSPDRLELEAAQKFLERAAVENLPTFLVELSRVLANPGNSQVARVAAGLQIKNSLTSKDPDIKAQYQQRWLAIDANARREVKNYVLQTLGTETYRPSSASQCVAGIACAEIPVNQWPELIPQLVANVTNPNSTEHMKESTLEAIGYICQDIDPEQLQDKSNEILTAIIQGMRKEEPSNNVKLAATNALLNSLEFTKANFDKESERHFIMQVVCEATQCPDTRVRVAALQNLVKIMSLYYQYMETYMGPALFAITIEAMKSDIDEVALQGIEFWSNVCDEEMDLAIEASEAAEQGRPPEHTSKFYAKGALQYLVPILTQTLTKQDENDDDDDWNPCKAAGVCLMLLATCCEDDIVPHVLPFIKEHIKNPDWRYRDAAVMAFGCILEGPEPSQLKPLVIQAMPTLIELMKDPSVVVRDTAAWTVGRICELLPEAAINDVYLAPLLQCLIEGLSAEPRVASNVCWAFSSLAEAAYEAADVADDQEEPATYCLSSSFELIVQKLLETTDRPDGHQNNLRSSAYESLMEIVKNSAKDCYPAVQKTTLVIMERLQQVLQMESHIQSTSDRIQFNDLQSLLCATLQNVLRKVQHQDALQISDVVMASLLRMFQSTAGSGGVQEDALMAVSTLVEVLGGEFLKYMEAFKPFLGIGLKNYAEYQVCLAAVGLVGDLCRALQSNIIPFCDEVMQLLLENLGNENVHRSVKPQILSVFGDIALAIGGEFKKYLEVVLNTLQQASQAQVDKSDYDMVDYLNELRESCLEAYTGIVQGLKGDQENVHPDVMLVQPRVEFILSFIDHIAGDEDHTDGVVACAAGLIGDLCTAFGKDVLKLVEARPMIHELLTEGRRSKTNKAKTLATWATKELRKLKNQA
UniProt Q8TEM1, residues 27-1887: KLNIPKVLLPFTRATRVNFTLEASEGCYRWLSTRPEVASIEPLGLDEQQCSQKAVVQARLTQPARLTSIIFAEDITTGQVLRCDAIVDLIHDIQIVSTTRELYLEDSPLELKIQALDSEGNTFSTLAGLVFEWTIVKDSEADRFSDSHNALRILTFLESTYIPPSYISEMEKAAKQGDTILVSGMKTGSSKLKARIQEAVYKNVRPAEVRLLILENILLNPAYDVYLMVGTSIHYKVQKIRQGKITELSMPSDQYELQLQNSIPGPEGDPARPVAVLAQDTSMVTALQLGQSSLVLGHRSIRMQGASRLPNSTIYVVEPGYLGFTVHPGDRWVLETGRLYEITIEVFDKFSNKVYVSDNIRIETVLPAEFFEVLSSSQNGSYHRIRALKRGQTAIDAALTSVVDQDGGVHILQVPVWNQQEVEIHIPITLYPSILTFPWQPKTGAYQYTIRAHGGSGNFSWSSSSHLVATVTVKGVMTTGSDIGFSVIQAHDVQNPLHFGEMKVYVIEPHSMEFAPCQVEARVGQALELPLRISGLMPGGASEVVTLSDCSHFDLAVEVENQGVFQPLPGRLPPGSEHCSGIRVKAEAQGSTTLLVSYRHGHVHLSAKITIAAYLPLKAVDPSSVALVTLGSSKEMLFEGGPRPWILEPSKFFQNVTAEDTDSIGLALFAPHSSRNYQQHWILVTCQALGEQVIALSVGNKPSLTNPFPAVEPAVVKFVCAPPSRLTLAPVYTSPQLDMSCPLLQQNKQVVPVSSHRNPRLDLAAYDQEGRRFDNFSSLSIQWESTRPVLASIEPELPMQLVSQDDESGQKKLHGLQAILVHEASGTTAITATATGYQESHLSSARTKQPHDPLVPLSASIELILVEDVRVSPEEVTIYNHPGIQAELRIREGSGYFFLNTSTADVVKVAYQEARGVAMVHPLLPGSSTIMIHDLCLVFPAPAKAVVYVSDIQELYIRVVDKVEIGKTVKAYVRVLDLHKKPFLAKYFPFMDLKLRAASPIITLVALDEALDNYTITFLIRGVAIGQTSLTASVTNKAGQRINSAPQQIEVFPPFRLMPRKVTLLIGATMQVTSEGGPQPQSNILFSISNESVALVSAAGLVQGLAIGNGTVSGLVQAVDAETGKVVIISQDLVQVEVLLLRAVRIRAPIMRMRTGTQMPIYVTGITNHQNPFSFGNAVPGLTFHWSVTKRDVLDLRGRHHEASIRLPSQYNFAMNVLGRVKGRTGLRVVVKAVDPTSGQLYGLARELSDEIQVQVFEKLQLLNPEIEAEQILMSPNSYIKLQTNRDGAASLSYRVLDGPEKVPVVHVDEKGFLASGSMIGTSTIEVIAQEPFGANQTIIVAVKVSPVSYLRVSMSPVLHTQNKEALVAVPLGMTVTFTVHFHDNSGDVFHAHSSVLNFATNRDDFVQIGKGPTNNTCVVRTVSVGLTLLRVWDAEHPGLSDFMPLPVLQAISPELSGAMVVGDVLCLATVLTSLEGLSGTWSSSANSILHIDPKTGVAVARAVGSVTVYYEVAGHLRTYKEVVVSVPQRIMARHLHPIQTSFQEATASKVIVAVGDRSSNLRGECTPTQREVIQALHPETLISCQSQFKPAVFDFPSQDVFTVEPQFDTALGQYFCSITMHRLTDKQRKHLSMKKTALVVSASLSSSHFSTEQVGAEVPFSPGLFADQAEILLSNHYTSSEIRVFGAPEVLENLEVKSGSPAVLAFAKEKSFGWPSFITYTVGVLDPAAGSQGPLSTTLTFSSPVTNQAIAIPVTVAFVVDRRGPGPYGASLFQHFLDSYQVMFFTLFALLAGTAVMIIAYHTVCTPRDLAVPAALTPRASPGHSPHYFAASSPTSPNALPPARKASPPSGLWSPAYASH

Results are given in words; binding and its absence hold for the method and conditions named. Binding seen in cells or lysates may run through a third protein. Here binding means that the protein was enriched with, or labelled near, the bait; the list need not be complete. Tags and fused reporters may be left off the sequences shown.

The assay has as its target T1, GPR37L1 tagged with turbo green fluorescence protein (GFP) (human) (UniProt O60883).
T1 sequence: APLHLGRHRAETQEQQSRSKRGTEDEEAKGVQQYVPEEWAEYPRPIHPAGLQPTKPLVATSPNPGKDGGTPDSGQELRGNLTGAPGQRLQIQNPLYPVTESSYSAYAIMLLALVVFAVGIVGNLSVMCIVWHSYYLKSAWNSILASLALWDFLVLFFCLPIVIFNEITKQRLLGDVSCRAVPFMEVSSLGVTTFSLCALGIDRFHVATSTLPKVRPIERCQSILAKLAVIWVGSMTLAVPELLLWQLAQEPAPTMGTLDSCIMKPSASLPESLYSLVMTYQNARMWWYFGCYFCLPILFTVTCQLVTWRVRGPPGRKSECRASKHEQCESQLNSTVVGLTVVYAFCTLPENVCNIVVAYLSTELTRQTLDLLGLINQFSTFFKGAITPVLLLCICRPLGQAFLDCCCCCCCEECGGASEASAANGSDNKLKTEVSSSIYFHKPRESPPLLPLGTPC
As to the kind of experiment: affinity purification with mass spectrometry; lysate (50 mM HEPES pH 7.6, 150 mM KCl, 2 mM EDTA, 0.5 mM DTT, 0.5% NP40) of hRPTCs expressing GPR37L1-GFP, fractionated on a 10-30% glycerol gradient; fractions 10-14 pooled, captured with GFP antibody on Protein G Dynabeads, eluted with SDS sample buffer, in-gel trypsin digestion, LC-MS/MS.
As for “DNA-dependent protein kinase catalytic subunit (from UniProt P78527 1-4128) (enzyme)”, the binding entry is recorded as “binds”. Turning to Exportin-1 (from UniProt O14980 1-1071), the binding entry is listed as “binds”.

As for Exportin-5 (from UniProt Q9HAV4 1-1204), the binding entry is “binds”. Then “Importin subunit beta-1 (from UniProt Q14974 1-876)”, with “binds”; and “Importin-1 (human (endogenous in hRPTCs))”, with “binds”; and “Nuclear pore membrane glycoprotein 210 (from UniProt Q8TEM1 27-1887)”, with “binds”.
